Assay results from publication PMC10163288.
The list shows a part of the results.

B1: il10ra_site1_normal_mot_HHH_b2_03800_000000151_0001_21_37_H_._HHH_b1_01641_0001_0000300017_0000001_0_af2pred_0001 (protein)
chain: SSSSSDEEAREEAEELEEEAHKVDEEERFKLARRISELAKRYQDPRISEIAFRLLELLASSSSSS
B2: il10ra_site1_normal_mot_HHH_b1_05185_000000011_0001_22_39_H_._HHH_b1_05781_0001_0000300028_0000001_0 (protein)
chain: SSSSDEDERYVKLALRFIRALLESGDPEAARTLLKAAEDIAKQHNNEELLEELEQLREEIDSSSS
B3: il10ra_site1_normal_mot_8756ee2cf497b5429c717dfc0c0bcfd6_0001_000000186_0001_1_13_H_._HHH_b2_05079_af2_0001_0000100002_0000002_1_af2pred_dldesign_0_af2pred (protein)
chain: SSSSSSELEELKNLIKEIAELLYEGKPEEARELLEKAEELAKKLGNKTALATLDYLRRQIESSSS
B4: il10ra_site1_normal_mot_2fa031a62b9321f410fa37cb4b35ac9e_0001_af2_000000160_0001_1_14_H_._HHH_b1_04099_0001_0000300025_0000002_0 (protein)
chain: SSSSDAAELARELLEELIEAYENNDPEEFEEIFEEARRLLEEAGNDNAVAVLERIFRLEEGSSSS
B5: il10ra_site1_normal_mot_HHH_b1_05056_000000217_0001_1_20_H_._HHH_b2_01332_0001_0000100012_0000001_0 (protein)
chain: SSSSSDEEEVEQEVEELLEEAKRIPDQRERARVLQEATRIALQGQNPEALQLVWEVVRRLSSSSS
B6: il10ra_site1_normal_mot_0750aae41c39e4229e2ea8fa354cc919_0001_1_000000144_0001_37_51_H_._ems_3hC_921_0001_0001_0000300023_0000001_0 (protein)
chain: SSPEEARKLLEEAHELAEEQNDEHALRAVEFWERLDEEAEKANNENVVRSVERAARRLLELLRES
B7: il10ra_site1_normal_mot_HHH_b2_01310_000000089_0001_41_55_H_._HHH_b1_08628_af2_0001_0000100011_0000001_0_af2pred_0001 (protein)
chain: SSSDEEERAEELYEEAHKLIEEGDDEEALRLLAELTKFVFRLGDPELTRLVLELAELLKRLSSSS
B8: il10ra_site1_sap_16_mot_HHH_b2_07144_000000289_0001_1_18_H_._HHH_b2_05024_0001_0000200022_0000002_1_0001 (protein)
chain: SSSSTLEFSVEFVIRAAELLLEAGNPERARYLLRRAKEIFEEAGDEEAVELLEEALERVEGSSSS
B9: il10ra_site1_normal_mot_HHH_b2_03330_000000161_0001_1_19_H_._HHH_b1_05293_0001_0000700019_0000001_0 (protein)
chain: SSSSDEVFKEAWELFREVAELAEEGDEERIEELLREIEELYREVNDPTLKSILRAIRDLLESSSS
B10: il10ra_site1_sap_23_mot_HHH_b2_08186_000000021_0001_43_56_H_._HHH_b2_02878_af2_0002_0000400016_0000001_0_0001_af2pred_0001 (protein)
chain: SSSSEEAEELVKEVEEELRRLLEEGNFQEAFKALHRAIEELLRLGDPEAARRLSKLFYRLASSSS
B11: il10ra_site1_sap_12_mot_HHH_b2_02053_af2_000000006_0001_3_19_H_._30554b25d4cb88526b5de2d18227f4b9_0001_0001_0000100001_0000001_0_0001_af2pred_0001 (protein)
chain: SSSSSLLERTIQAIRYAIEQGNLERAKLTIRLAKRDAEFLNDEEAAEELKELEEEVRELLSSSSS
B12: il10ra_site1_sap_31_mot_HHH_b2_03708_000000000_0001_1_18_H_._HHH_b2_06184_af2_0001_0000100003_0000002_0_0001 (protein)
chain: KEEARDEASHLMIRAYALAHESDPEARREAEELIEEAKELAEEANDPRVEEIVRIAEEVIKEACS
B13: il10ra_site1_sap_20_mot_HHH_b2_00066_000000124_0001_1_17_H_._HHH_b1_03869_0001_0000200027_0000001_0_0001 (protein)
chain: SSSSSEDEEEVERLLEEVEELARQGDPEEANELAAEALRIAYENKNPELLRLIWEVFQRVGSSSS
B14: il10ra_site1_normal_mot_65b8060e20531850bca9f2e11f97d954_0001_af2_000000137_0001_17_31_H_._HHH_b1_08154_0001_0000100009_0000001_0_af2pred_0001 (protein)
chain: SSSSDEHQRASELAVKAAELIKEGDEEKAREVIEELEEIVEKIGDEKLKKSVRALKASLRSSSSS
B15: il10ra_site1_sap_8_mot_4271555111f650dfcc09ceace45bed71_0001_1_000000133_0001_37_51_H_._HHH_b1_08546_af2_0001_0000400012_0000001_0_0001 (protein)
chain: SSSSDEYKRLKELIEEVVKLQRNGNPEEAEELLEEAIELARERGDWAAAAALEHLARSLRSSSSS
B16: il10ra_site1_normal_mot_HHH_b2_07784_af2_000000103_0001_19_36_H_._HHH_b2_01135_0001_0000200013_0000001_0 (protein)
chain: SSSSDEEYERLKELIERIVEALENNDPEEVRELLEELKELAEELNTFSARFAVRLLERILRSSSS
B17: il10ra_site1_sap_17_mot_1817edcbb30e3b4d8c1983a6c7bdefe8_0001_000000096_0001_36_51_H_._HHH_b1_06688_0001_0000100005_0000001_1_0001 (protein)
chain: SSSSSDEYVRLTLRFAKQLAEAGDPEAAEAMLRAARQIAERNGDEEAQRLVEELEEELEKSSSSS
B18: il10ra_site1_sap_21_mot_HHH_b1_02397_af2_000000085_0001_39_57_H_._HHH_b2_03598_0001_0000200008_0000002_0_0001 (protein)
chain: SSSSSSRQKRQHAEAIIWFAKWIPDRDIRRVALEHAEELAREINDEELLREIEELLEELNSSSSS
B19: il10ra_site1_sap_20_mot_6792f2186577ebd01aa11eb855ed7b57_0001_af2_000000149_0001_1_16_H_._HHH_b1_08125_af2_0001_0000200005_0000001_0_0001 (protein)
chain: TVEHVLRKFAERAVKGDEDAKRILEVIVEAAKTDPQYREVLERLIEILEELGDPELAEELEELLK
B20: il10ra_site1_sap_20_mot_1f0bf248c09923a0581b66a675a8b92c_0001_af2_000000188_0001_52_65_H_._HHH_b1_01266_0001_0000300032_0000001_0_0001 (protein)
chain: SSSSSEREEVYRLLREAIELRDEGNPEEAEKVLEEAREIAEELGDWAFLMNIEFLEEQIKRSSSS
B21: il10ra_site1_sap_29_mot_HHH_b2_00441_000000147_0001_1_18_H_._HHH_b2_06153_0001_0000200020_0000001_0_0001 (protein)
chain: SSSSSSDAKEEVEELLEEAEEIEDPKELTKVLLEALKVALQRGDEEALQLVWEVVHKLSSSSSSS
B22: il10ra_site1_normal_mot_2c1a291787c6f40772924d4e9068d803_0001_af2_000000187_0001_34_48_H_._HHH_b1_01986_0001_0000400039_0000001_0_af2pred_dldesign_0_af2pred (protein)
chain: SSSSNLEKEVFELTVKAVQLYKAGKKEEAKKLLEKALELAKKMGDEKLIANLEHLLKLVESSSSS
B23: il10ra_site1_sap_18_mot_HHH_b2_00076_000000055_0001_40_55_H_._HHH_b2_03406_0001_0000500028_0000001_0_0001 (protein)
chain: SSSSSQEDYRVAKEAIEEAIELFRRGNPEEAREVLEEAIEFVEKNGNWAALFSLRHLAKLLSSSS
B24: il10ra_site1_normal_mot_65b8060e20531850bca9f2e11f97d954_0001_af2_000000137_0001_17_31_H_._HHH_b1_08628_0001_0000100002_0000001_0_af2pred_0001 (protein)
chain: SSSNERERASELFVKAAELIQEGDDEEARKLLEELRELVEEIGDPRLEVSVRFLEALLRAASSSS

biological target: il10ra, Q13651; assay: yeast display titration

Apparent Kd, inactive:
B1 no binding seen, B2 no binding seen, B3 no binding seen, B4 no binding seen, B5 no binding seen, B6 no binding seen, B7 no binding seen, B8 no binding seen, B9 no binding seen, B10 no binding seen, B11 no binding seen, B12 no binding seen, B13 no binding seen, B14 no binding seen, B15 no binding seen, B16 no binding seen, B17 no binding seen, B18 no binding seen, B19 no binding seen, B20 no binding seen, B21 no binding seen, B22 no binding seen, B23 no binding seen, B24 no binding seen
